From PubChem BioAssay AID504834 (National Center for Advancing Translational Sciences (NCATS), 2011)
About 22,000 (6.9%) of roughly 320,000 compounds were called active. The inconclusive results got no clear call from the source; some entries with a clear call stand among them for comparison. Calls follow the shape of the dose curve; as a rule, active = well fitted inhibition curve with a large enough effect; inconclusive = small, poorly fitted or top-dose-only effect, or another doubt; inactive = no such curve, though single readings can be large or run the other way. A potency beside an inconclusive call is a rough fit, not a confirmed value.
% is scaled to controls: 0 for no effect and ±100 for the full control effect; potency is read from the fitted curve at half-maximal effect.

Experiment: Primary qHTS for delayed death inhibitors of the malarial parasite plastid, 96 hour incubation
Conditions: P. falciparum luciferase reporter growth; series mostly up to 28.7 µM; activity change, negative = inhibition: at the top concentration
How it was run: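 Parasite growth measured via integrated firefly luciferase reporter in P. falciparum. Infected erythrocytes at 2% hematocrit, 0.05% parasitemia final were treated 96 hours at 37 C under 5% CO2, and luminescence was read.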
With O=C(NC1CCCC1)c1cccc(S(=O)(=O)N2CCCCC2)c1 the Potency was inconclusive: 18.5 µM [inhibitor, single point].
In the case of COC(=O)c1c(NC(=O)c2nc3ccccc3s2)sc2c1CCN(C(C)=O)C2, the Potency is reported as active: 10.4 µM.
In the case of CCCc1nnc(NC(=O)CCC(=O)N2CCC(C)CC2)s1, the Potency is reported as inconclusive: 13.1 µM [inhibitor, single point].
In the case of COc1ccc(S(=O)Cc2ccc(C(=O)N3CCN(C(=O)c4ccco4)CC3)o2)cc1 (configuration not stated), the Potency is reported as inconclusive: 11.7 µM [inhibitor, single point].
With CCOC(=O)C(=CNc1cc(OC)ccc1-n1cccc1)C(=O)OCC the Potency was inconclusive: 10.4 µM [inhibitor, partial curve].
In the case of CN(Cc1ccccn1)Cc1nc(COc2ccccc2)no1, the Potency is reported as inconclusive: 5.22 µM [inhibitor, partial curve].
For CCC(C)[C@H](NC(=O)Nc1ccc(S(N)(=O)=O)cc1)C(=O)O (some centres not stated), the Potency was inconclusive: 0.0029 µM [inhibitor, full curve, poor fit].
In the case of CSc1ccc(/C=N/NC(=O)c2ccccc2Cl)cc1, the activity change, negative = inhibition is reported as inactive: -65.5% [at 5.75 µM].
With O=C1OCCN/C1=C\C(=O)c1ccccc1 the “activity change, negative = inhibition” value was inactive: 115%.
With Cc1nn(Cc2ccccc2)c(C)c1NC(=O)c1noc2c1CCc1ccccc1-2 the “activity change, negative = inhibition” value was inactive: 336%.
In the case of CCCCc1ccc(NC(=S)Nc2cccnc2)cc1, the “activity change, negative = inhibition” value is reported as inactive: 22.9%.
In the case of CCn1c2ccccc2c2cc(NC(=O)COC(=O)c3cc(OC)c(OC)cc3OC)ccc21, the Potency is reported as inconclusive: 14.7 µM [inhibitor, single point].
With Fc1ccc(Nc2nc(-c3ccncc3)cs2)cc1 the “activity change, negative = inhibition” value was inactive: 26.2%.
For COc1ccc(Nc2nc(-c3cccs3)nc3ccccc23)c(OC)c1, the Potency was inconclusive: 18.5 µM [inhibitor, single point].
In the case of Cc1cc(C)c(C(=O)NC2CCCc3c2cnn3-c2ccc(C)c(C)c2)c(=O)[nH]1 (configuration not stated), the “activity change, negative = inhibition” value is reported as inactive: 22.5%.
With Cc1ccccc1-c1cc(C(=O)NCC2CC2)n(CC2CC(c3cccnc3)=NO2)n1 (configuration not stated) the Potency was inconclusive: 16.5 µM [inhibitor, single point].
For CCN(CCCc1ccccc1)CCCc1ccccc1, the Potency was inconclusive: 11.7 µM [inhibitor, single point].
With Cc1cc(C)n(CCCNC(=O)c2ccc(C)c(S(=O)(=O)N3CCOCC3)c2)n1 the Potency was inconclusive: 14.7 µM [inhibitor, single point].
With Cc1nn(C)c(C)c1CCC(=O)N1CCCC(C(=O)c2cccc(OC(C)C)c2)C1 (configuration not stated) the Potency was inconclusive: 0.233 µM [inhibitor, full curve, poor fit].
For COc1cc(O)c(C(CCN2CCOCC2)c2cc(OC)c(OC)c(OC)c2)c(OC)c1 (configuration not stated), the Potency was inconclusive: 13.1 µM [inhibitor, single point].
In the case of COc1ccccc1/C=C1\C(=O)Nc2ccccc21, the Potency is reported as inconclusive: 18.5 µM [inhibitor, single point].
With C=CCOc1ccc(/C=C/C(=O)OCC(=O)N(C)CC(=O)Nc2ccc(F)cc2)cc1 the “activity change, negative = inhibition” value was inactive: -1.14%.
For C(#CCN1CCOCC1)COC(c1ccccc1)c1ccccc1, the Potency was inconclusive: 6.57 µM [inhibitor, single point].
In the case of Cc1cccc(C(=O)NCC(c2cccs2)N2CCOCC2)c1 (configuration not stated), the “activity change, negative = inhibition” value is reported as inactive: -2.54%.
For COc1ccccc1NC(=O)CCc1nc(-c2cccs2)no1, the “activity change, negative = inhibition” value was inactive: 21.6%.
For O=C(CCC(=O)N1CCN(c2ccc(Cl)c(Cl)c2)CC1)c1ccccc1, the Potency was inconclusive: 18.5 µM [inhibitor, single point].
With COCCN(Cc1ccccc1)C(=O)c1cc(-c2ccc(OC)c(OC)c2)nc2ccccc12 the Potency was inconclusive: 18.5 µM [inhibitor, single point].
In the case of O=C(O)c1cccc(S(=O)(=O)Nc2cccc(S(=O)(=O)Nc3ccc(Br)cc3)c2)c1, the “activity change, negative = inhibition” value is reported as inactive: 0.722%.
In the case of CCCCCCCCCCCCCCCCCC[N+](C)(C)CCC[Si](OC)(OC)OC, the “activity change, negative = inhibition” value is reported as inactive: -1.55%.
With CCOc1ccccc1NC(=O)C(c1ccccc1)N1CCN(C(=O)c2ccco2)CC1 (configuration not stated) the Potency was inconclusive: 4.65 µM [inhibitor, partial curve, poor fit].
In the case of COc1ccccc1CNC(=O)c1nn(C)c2c1CS(=O)(=O)c1ccccc1-2, the “activity change, negative = inhibition” value is reported as inactive: -1.19%.
For S=c1[nH]nc(-c2cc3c(s2)-c2ccccc2CC3)o1, the “activity change, negative = inhibition” value was inactive: 33.6%.
For O=C(c1ccco1)N1N=C(C2CCCCC2)CC1(O)C(F)(F)F (configuration not stated), the Potency was inconclusive: 2.94 µM [inhibitor, full curve].
In the case of Cc1cccc(C)c1NC(=O)/C(=C/c1ccco1)c1ccccc1, the Potency is reported as active: 10.4 µM.
In the case of COC(=O)c1c(NC(=O)CSc2nnnn2-c2ccccc2)sc2c1CCC(C)C2 (configuration not stated), the Potency is reported as inconclusive: 13.1 µM [inhibitor, partial curve, poor fit].
For CC(C)(C)C(=O)NC(=S)Nc1sc2c(c1C(N)=O)CCC2, the Potency was inconclusive: 16.5 µM [inhibitor, single point].
In the case of CN(C)CCCN1C(=O)c2cccc3c(Br)ccc(c23)C1=O, the Potency is reported as inconclusive: 11.7 µM [inhibitor, single point].
With COc1ccccc1OCC(=O)NC1CC(C)(C)NC(C)(C)C1 the “activity change, negative = inhibition” value was inactive: 4.76%.
For O=C(O)Cc1csc(-c2cccc(F)c2)n1, the “activity change, negative = inhibition” value was inactive: -0.0533%.
With CCC1CCCCN1C(=O)Cn1c(=O)n(CCC(=O)NCc2ccco2)c(=O)c2sccc21 (configuration not stated) the Potency was active: 5.22 µM.
With CCO[C@H]1OC(C(=O)N2CCN(Cc3ccc4c(c3)OCO4)CC2)=C[C@@H](c2ccc3c(c2)OCO3)[C@@H]1CCCO the Potency was active: 13.1 µM.
In the case of Cn1c(Br)nc2c1c(=O)n(Cc1ccccc1)c(=O)n2C, the “activity change, negative = inhibition” value is reported as inactive: -14.8%.
With O=C(Nc1cc(S(=O)(=O)N2CCCCC2)ccc1Cl)c1ccncc1 the Potency was inconclusive: 10.4 µM [inhibitor, partial curve, poor fit].
In the case of CCOC(=O)C1CCN(C(=O)c2cccc(S(=O)(=O)N3CCc4ccccc43)c2)CC1, the Potency is reported as inconclusive: 11.7 µM [inhibitor, single point].
For CCCCOc1ccc(CN2CCCCC2)cc1, the “activity change, negative = inhibition” value was inactive: -17.9%.
In the case of CCc1nc(SCC(=O)c2c[nH]c3ccccc23)n[nH]1, the “activity change, negative = inhibition” value is reported as inactive: -22%.
In the case of CCN(CC)C(=O)CSc1nc(COc2ccccc2)nc2ccccc12, the Potency is reported as inconclusive: 11.7 µM [inhibitor, single point].
